Results published in US8658613.

By UniProt entry, the sequences of proteins in these tests, tags left out. Where a name states a change or a piece, a line headed by the entry shows the natural chain unless it says otherwise. Residues count along the entry.
UniProt P02452: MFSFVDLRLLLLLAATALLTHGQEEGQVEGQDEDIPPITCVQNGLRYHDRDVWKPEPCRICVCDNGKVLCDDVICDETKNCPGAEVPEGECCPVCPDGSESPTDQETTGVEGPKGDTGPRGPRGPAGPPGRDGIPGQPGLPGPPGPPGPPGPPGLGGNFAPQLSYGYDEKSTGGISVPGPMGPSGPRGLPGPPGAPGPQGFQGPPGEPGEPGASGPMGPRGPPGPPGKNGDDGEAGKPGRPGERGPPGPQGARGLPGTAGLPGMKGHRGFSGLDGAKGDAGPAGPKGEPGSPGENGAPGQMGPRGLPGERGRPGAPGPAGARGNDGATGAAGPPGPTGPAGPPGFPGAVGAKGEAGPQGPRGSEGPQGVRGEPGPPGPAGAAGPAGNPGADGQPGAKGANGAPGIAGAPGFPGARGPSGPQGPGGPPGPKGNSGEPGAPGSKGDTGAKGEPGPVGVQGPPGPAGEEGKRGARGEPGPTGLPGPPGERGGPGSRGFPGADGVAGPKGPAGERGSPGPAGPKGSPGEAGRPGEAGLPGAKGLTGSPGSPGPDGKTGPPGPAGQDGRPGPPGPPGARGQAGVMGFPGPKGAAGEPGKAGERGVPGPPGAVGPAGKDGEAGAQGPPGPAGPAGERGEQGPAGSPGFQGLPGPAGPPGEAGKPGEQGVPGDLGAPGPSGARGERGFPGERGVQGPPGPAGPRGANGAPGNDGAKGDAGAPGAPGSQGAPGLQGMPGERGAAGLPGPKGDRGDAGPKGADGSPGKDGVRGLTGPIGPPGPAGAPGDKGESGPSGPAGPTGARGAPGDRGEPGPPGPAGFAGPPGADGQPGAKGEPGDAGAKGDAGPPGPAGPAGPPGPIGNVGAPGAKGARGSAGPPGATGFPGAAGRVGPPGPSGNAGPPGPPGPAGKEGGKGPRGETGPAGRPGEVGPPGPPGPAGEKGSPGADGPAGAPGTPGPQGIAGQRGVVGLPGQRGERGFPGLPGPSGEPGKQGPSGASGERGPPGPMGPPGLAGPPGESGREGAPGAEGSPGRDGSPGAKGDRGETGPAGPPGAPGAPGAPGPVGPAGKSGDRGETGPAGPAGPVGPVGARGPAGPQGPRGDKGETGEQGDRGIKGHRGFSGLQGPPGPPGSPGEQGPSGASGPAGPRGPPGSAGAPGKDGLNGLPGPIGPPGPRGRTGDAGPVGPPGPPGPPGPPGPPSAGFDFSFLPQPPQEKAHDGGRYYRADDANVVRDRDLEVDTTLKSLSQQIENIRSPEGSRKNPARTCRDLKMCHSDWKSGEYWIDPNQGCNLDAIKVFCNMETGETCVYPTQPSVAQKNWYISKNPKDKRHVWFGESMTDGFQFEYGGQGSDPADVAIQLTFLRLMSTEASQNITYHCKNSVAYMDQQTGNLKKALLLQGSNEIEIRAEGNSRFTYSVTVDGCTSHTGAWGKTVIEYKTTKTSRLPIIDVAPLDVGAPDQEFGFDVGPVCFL
UniProt P01241, 27-217: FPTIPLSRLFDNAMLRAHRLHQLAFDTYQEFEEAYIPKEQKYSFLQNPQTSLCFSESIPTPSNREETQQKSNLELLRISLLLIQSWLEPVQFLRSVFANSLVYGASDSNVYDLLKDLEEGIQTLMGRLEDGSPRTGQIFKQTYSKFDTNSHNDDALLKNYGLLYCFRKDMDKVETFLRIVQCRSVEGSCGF

Target: Type I collagen C-telopeptide (CTx) peptide, 26 aa (Homo sapiens) (UniProt P02452)
Experiment: SELEX
Conditions: F and R forms dominated aptamer pool (12 of 38 clones); single-stranded DNA

Selection result, selected:
ATCCGTCACACCTGCTCTAGACGAATATTGTATCCTCATTAGATCAAAAACGGGTGGTGTTGGCTCCCGTAT [CTx 2/13/19/20/25/32 R], ATACGGGAGCCAACACCACCCGTTTTTGATCTAATGAGGATACAATATTCGTCTAGAGCAGGTGTGACGGAT [CTx 2/13/19/20/25/32 F]

Target: Natural human growth hormone (somatotropin) (Homo sapiens) (UniProt P01241)
Experiment: binding assay
Conditions: ELISA-like plate assay; less than r-hGH; single-stranded DNA

Binding result, binds more weakly:
ATCCGTCACACCTGCTCTAGGATTTTTGTTATGTCGGCCACGATGGGGACCCCGTGGTGTTGGCTCCCGTAT [hGH aptamer SEQ 348], ATCCGTCACACCTGCTCTTGGGTGAATCAATTGTTCGTACTCCACGTGATTCTGTGGTGTTGGCTCCCGTAT [hGH aptamer SEQ 338], ATCCGTCACACCTGCTCTGGGGTGTATCCTTTTATGGATCTGCGAGAATAAGTCTGGTGTTGGCTCCCGTAT [hGH aptamer SEQ 336], ATCCGTCACACCTGCTCTAAAACATGGGCCCAATTAGGCGTGATCCAACCCGTCTGGTGTTGGCTCCCGTAT [hGH aptamer SEQ 388], ATACGGGAGCCAACACCACCTGAGCGCCGGCAGCACTCACTATTTGTCCCCGCAAGAGCAGGTGTGACGGAT [hGH aptamer SEQ 379], ATACGGGAGCCAACACCACATGACGGGTGACTAAAAGACGAAATCTCCCAATTAAGAGCAGGTGTGACGGAT [hGH aptamer SEQ 377], ATACGGGAGCCAACACCAGGTTGGCGTCAAAAGAAATAAGGGATATACATTAGAGAGCAGGTGTGACGGAT [hGH aptamer SEQ 345], ATACGGGAGCCAACACCATAAGCAGAGAACTACAAGACGATCCCATATTCCAAAGAGCAGGTGTGACGGAT [hGH aptamer SEQ 343]

Tested on: Type I collagen C-telopeptide (CTx) peptide, 8 aa segment (Homo sapiens)
Experiment: binding assay
Conditions: beacon fluorescence; 8-aa segment not giving the response; label: 5' TYE665, 3' Iowa Black RQ; single-stranded DNA; variant of CTx 2/13/19/20/25/32 R

Binding result, no binding:
GGTGGTGTTGGCTCC [CTx 2R-2h 15-base beacon]

For some assays here: A weaker result is weaker than the reference pair of the same experiment. For some assays here: The exact form of at least one protein or probe is not confirmed. For some assays here: Negatives hold for the conditions tested.
